Assay results published in paper doi:10.1101/733147 (bioRxiv, 2020).
Results are given in words; binding and its absence hold for the method and conditions named. Binding seen in cells or lysates may run through a third protein. Some binding calls cover weakened binding; strength is not graded here. Tags and fused reporters may be left off the sequences shown.

T1: ACVR1, split beta-galactosidase fusion in U2OS cells, Q04771
T1 chain: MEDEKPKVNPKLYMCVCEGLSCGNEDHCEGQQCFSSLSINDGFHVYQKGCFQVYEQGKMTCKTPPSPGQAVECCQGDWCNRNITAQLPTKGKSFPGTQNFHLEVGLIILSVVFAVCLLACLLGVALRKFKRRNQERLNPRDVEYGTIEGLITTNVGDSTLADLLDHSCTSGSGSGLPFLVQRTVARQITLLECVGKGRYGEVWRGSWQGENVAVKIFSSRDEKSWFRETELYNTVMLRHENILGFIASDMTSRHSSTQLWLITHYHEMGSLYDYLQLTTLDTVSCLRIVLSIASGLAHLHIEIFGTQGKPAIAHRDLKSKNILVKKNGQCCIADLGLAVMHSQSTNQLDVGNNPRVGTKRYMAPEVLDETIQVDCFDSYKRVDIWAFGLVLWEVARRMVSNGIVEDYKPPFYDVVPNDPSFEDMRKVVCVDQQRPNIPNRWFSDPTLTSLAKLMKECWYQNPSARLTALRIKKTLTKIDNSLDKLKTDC

T2: TGFBR1, split beta-galactosidase fusion in U2OS cells, P36897
T2 chain: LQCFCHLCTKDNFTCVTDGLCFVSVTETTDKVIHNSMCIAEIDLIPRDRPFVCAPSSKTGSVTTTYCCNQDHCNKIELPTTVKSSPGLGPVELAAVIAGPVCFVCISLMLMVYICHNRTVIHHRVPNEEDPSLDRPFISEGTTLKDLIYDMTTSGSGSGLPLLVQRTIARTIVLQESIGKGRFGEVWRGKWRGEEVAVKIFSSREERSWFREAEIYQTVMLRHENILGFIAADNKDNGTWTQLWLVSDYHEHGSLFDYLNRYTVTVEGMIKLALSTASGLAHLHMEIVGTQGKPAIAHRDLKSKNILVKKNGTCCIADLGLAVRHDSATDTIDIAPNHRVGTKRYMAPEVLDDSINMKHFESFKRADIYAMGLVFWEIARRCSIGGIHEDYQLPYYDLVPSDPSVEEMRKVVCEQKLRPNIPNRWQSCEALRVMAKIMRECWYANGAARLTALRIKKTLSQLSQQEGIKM

T3: ACVR1, split beta-galactosidase fusion in U2OS cells (UniProt Q04771)
T3 sequence: T1 chain

T4: TGFBR1, split beta-galactosidase fusion in U2OS cells (UniProt P36897)
T4 sequence: T2 chain

B1: Activin A (wild type, mature dimer), P08476 311-426 (ligand)
chain: GLECDGKVNICCKKQFFVSFKDIGWNDWIIAPSGYHANYCEGECPSHIAGTSGSSLSFHSTVINHYRMRGHSPFANLKSCCVPTKLRPMSMLYYDDGQNIIKKDIQNMIVEECGCS
B2: Activin A.ΔD406 (ligand)
chain: GLECDGKVNICCKKQFFVSFKDIGWNDWIIAPSGYHANYCEGECPSHIAGTSGSSLSFHSTVINHYRMRGHSPFANLKSCCVPTKLRPMSMLYYDGQNIIKKDIQNMIVEECGCS

Tests used:
Assay in all cases: split reporter
[1] = target: T1, ACVR1, split beta-galactosidase fusion …; details: remark: other sources report otherwise
[2] = target: T2, TGFBR1, split beta-galactosidase fusion …; details: remark: other sources report otherwise
[3] = target: T3, ACVR1, split beta-galactosidase fusion in U2OS cells
[4] = target: T4, TGFBR1, split beta-galactosidase fusion in U2OS cells

Row | binding [1] | binding [2] | binding [3] | binding [4] | Binder
1 | binds | binds | – | – | B1
2 | – | – | binds weakly | binds | B2
